# Assay results as given in the supplement of paper PMC12595434, “Development of retinoid nuclear receptor pathway antagonists through targeting aldehyde dehydrogenase 1A3” (iScience, 2025).
# The chains behind the UniProt entries cited, without tags or fusion partners. Where a name states a change or a piece, a line headed by the entry shows the natural chain unless it says otherwise.
# UniProt Q9NRZ9: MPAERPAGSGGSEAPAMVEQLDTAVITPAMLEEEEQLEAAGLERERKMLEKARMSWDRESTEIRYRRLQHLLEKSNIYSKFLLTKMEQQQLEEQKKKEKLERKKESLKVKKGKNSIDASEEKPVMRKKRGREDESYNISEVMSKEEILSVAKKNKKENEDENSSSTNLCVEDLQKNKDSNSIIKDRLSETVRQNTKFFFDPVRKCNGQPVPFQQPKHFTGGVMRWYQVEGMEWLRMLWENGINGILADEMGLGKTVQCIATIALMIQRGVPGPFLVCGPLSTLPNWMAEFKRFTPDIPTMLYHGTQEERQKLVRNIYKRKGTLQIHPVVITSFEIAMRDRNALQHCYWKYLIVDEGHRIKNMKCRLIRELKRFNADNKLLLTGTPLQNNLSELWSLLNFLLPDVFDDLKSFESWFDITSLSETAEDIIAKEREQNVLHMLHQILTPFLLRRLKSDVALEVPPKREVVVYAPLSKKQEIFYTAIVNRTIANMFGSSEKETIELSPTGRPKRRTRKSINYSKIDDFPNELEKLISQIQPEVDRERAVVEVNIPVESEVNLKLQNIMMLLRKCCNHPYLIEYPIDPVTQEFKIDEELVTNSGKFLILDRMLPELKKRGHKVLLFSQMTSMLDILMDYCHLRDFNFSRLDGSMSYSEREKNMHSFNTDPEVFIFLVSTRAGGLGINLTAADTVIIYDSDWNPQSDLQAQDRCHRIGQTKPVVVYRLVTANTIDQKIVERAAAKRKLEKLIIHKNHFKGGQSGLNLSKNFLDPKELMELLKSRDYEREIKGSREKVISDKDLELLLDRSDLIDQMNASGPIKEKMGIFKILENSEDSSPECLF
# UniProt Q9NUG6, whole entry: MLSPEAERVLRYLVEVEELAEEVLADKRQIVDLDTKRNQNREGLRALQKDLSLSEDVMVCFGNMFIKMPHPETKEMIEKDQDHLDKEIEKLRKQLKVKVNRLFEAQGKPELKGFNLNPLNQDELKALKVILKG
# UniProt Q9HCC0: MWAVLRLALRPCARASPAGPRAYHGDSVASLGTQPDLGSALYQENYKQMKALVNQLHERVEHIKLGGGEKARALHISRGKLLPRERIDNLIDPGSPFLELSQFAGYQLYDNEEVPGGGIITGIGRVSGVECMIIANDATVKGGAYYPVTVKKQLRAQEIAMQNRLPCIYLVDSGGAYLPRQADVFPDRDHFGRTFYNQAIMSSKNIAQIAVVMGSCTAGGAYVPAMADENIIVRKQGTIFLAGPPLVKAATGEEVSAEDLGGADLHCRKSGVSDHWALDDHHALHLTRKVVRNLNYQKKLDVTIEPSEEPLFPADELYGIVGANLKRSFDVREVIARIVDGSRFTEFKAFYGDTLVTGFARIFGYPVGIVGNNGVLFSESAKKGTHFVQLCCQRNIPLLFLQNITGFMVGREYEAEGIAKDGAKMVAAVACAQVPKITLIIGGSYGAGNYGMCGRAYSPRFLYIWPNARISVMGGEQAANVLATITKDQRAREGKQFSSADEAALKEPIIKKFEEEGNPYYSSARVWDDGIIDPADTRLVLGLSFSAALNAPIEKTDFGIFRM
# UniProt Q9NQX4, whole entry: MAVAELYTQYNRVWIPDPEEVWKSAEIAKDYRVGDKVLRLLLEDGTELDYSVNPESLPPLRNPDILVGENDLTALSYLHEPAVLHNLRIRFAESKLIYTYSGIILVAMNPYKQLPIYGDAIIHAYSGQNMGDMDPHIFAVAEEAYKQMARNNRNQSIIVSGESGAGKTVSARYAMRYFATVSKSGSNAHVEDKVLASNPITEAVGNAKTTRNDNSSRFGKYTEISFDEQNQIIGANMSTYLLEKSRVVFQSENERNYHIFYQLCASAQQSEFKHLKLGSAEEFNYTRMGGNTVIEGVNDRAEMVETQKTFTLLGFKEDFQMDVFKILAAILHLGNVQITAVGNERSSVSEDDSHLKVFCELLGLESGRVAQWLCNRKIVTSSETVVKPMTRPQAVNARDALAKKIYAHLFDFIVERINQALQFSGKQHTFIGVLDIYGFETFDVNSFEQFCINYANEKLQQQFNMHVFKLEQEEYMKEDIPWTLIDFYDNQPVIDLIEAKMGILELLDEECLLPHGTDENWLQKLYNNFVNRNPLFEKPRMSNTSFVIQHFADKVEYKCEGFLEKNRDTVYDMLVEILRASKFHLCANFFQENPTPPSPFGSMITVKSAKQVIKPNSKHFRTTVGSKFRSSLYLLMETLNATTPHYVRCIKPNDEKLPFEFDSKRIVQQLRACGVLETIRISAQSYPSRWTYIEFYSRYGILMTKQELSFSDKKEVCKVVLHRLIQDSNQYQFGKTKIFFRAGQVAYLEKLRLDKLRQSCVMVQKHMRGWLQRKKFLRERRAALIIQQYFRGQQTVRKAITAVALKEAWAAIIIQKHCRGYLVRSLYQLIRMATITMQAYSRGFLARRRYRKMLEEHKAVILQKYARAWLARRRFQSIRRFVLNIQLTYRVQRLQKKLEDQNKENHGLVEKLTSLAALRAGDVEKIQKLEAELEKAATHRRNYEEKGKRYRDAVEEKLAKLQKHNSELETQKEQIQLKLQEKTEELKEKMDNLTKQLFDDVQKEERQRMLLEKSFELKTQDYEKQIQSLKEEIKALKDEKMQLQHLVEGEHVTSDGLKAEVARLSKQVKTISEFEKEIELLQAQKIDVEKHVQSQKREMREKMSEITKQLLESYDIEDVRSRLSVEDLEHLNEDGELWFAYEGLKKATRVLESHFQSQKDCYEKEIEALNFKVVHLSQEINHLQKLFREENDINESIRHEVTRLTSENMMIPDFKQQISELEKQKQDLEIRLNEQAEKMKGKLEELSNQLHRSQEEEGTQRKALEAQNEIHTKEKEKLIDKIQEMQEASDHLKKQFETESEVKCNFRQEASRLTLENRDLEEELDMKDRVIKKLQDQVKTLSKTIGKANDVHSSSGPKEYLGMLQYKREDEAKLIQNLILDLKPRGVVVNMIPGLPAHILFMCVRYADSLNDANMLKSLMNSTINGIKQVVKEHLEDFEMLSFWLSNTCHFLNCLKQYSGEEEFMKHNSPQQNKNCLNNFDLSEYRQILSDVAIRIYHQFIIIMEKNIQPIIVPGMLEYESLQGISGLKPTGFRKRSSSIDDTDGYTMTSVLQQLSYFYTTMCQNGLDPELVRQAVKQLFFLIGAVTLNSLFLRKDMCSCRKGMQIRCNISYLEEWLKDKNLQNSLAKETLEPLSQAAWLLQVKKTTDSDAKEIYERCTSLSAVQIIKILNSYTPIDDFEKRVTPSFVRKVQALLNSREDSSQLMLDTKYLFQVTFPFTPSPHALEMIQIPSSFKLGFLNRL
# UniProt Q9NUX5: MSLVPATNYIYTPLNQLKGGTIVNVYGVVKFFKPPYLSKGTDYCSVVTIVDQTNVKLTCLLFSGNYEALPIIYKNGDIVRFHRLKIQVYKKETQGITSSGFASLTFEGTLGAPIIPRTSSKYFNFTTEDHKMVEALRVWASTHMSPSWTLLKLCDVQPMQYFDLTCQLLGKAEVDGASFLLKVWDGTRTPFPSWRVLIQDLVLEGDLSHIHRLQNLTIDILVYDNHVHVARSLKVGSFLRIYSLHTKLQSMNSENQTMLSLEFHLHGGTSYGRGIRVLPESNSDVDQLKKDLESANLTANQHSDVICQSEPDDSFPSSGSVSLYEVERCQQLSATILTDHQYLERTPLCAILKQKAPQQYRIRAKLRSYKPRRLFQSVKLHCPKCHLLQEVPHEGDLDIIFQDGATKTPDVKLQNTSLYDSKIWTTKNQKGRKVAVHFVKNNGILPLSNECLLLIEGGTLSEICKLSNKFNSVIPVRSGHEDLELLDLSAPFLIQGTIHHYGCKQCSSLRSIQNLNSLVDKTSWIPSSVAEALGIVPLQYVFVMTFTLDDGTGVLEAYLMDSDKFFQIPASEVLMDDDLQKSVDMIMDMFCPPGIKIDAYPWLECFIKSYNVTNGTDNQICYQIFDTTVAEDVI
# UniProt Q9HA92: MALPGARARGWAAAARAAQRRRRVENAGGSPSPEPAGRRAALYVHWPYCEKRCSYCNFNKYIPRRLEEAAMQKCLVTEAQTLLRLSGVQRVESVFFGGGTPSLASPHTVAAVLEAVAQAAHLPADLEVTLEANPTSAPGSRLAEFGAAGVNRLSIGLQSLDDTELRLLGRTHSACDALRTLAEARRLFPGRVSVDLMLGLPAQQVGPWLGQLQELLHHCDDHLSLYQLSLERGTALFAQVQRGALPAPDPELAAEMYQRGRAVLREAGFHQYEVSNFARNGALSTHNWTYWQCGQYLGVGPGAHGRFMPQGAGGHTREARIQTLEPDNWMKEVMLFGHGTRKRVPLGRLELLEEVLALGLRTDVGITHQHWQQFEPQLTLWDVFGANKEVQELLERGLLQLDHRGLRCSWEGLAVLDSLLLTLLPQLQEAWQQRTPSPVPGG
# UniProt Q9HAU5: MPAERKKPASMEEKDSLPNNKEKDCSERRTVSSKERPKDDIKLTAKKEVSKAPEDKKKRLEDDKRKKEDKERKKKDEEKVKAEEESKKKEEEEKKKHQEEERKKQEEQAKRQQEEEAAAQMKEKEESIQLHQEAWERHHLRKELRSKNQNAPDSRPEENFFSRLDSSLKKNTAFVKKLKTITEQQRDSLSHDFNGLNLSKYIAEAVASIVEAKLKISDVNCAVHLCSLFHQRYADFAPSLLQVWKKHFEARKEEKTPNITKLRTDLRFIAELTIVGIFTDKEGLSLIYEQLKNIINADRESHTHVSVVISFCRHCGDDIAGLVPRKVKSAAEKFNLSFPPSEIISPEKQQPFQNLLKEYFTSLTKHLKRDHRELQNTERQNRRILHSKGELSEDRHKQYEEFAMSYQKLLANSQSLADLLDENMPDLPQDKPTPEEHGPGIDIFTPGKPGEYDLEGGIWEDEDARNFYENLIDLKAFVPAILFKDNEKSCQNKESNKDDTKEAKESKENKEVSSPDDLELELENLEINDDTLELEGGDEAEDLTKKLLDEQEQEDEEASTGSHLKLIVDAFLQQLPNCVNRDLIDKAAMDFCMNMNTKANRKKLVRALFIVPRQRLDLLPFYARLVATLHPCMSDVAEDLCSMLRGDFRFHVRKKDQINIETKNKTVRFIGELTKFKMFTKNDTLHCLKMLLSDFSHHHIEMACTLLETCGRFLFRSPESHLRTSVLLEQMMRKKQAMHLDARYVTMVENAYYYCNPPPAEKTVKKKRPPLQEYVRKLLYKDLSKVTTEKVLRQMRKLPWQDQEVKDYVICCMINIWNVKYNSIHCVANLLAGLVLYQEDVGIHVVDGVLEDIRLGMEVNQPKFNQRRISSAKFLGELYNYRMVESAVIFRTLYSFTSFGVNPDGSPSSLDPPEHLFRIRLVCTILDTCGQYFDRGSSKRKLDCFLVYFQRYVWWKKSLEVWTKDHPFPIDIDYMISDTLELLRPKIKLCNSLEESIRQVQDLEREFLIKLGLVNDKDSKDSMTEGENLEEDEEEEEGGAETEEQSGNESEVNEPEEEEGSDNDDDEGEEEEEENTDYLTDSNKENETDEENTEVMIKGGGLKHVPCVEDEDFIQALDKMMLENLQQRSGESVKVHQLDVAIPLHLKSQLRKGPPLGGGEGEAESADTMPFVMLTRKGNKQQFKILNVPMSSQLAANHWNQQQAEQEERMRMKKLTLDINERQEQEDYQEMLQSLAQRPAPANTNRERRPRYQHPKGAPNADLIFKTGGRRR
# UniProt Q9NS93: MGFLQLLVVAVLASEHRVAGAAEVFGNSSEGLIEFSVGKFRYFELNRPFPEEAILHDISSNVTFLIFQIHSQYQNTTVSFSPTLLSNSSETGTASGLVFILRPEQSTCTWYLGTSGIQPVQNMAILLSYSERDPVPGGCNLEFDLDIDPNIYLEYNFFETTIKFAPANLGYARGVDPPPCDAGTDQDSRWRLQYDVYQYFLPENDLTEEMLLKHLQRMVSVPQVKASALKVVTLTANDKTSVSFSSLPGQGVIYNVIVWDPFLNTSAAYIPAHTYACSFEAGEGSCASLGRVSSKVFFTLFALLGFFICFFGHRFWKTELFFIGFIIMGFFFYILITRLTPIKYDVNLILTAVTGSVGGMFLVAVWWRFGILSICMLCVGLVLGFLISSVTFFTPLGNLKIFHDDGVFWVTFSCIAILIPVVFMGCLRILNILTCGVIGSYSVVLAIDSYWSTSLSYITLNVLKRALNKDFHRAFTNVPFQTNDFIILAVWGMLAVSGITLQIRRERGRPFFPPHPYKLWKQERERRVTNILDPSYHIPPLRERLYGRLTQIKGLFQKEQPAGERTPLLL
# UniProt Q9HAV0, whole entry: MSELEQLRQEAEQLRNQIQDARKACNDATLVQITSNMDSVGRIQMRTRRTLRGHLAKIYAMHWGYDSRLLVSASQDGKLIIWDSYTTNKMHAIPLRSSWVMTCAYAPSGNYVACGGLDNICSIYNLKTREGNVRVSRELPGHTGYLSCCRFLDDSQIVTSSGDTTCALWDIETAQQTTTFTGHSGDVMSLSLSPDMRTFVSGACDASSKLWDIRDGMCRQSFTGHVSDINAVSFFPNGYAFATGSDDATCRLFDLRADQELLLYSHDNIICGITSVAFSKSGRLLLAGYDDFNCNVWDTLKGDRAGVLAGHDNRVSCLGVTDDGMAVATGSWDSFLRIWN
# Some of the results follow. The data scatter; read single values as rough.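 Many melting curves are irregular; where none melted, Tm was taken as 64 °C.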
# Compound: CCc1cnccc1C(=O)Nc1cc2c(cc1F)NC(=O)CC2
# Assay: melting temperature shift (DMSO Tm minus MBE1-treated Tm) in cellular thermal proteome profiling; higher = less thermal stabilization by MBE1 (negative = stabilized by MBE1)
# Settings: A375
target,measurement,setting,value
CARS2 (UniProt Q9HA77),melting temperature shift,MBE1 concentration: 100 nM,-0.525 °C
same,melting temperature shift,MBE1 concentration: 1 uM,-0.14 °C
HELLS (UniProt Q9NRZ9),melting temperature shift,MBE1 concentration: 100 nM,-0.147 °C
same,melting temperature shift,MBE1 concentration: 1 uM,-0.147 °C
UniProt Q9HC62,melting temperature shift,MBE1 concentration: 100 nM,1.54 °C
same,melting temperature shift,MBE1 concentration: 1 uM,0.953 °C
UniProt Q9NSG2,melting temperature shift,MBE1 concentration: 100 nM,-0.583 °C
same,melting temperature shift,MBE1 concentration: 1 uM,-0.378 °C
XPO5 (UniProt Q9HAV4),melting temperature shift,MBE1 concentration: 100 nM,0.16 °C
same,melting temperature shift,MBE1 concentration: 1 uM,-0.151 °C
MRPL47 (UniProt Q9HD33),melting temperature shift,MBE1 concentration: 100 nM,0.47 °C
same,melting temperature shift,MBE1 concentration: 1 uM,0.324 °C
PDRG1 (UniProt Q9NUG6),melting temperature shift,MBE1 concentration: 100 nM,-2.57 °C
same,melting temperature shift,MBE1 concentration: 1 uM,0.907 °C
JPH1 (UniProt Q9HDC5),melting temperature shift,MBE1 concentration: 100 nM,0.586 °C
same,melting temperature shift,MBE1 concentration: 1 uM,0.14 °C
EXOSC4 (UniProt Q9NPD3),melting temperature shift,MBE1 concentration: 100 nM,0.505 °C
same,melting temperature shift,MBE1 concentration: 1 uM,0.44 °C
UniProt Q9NNX1,melting temperature shift,MBE1 concentration: 100 nM,-1.61 °C
same,melting temperature shift,MBE1 concentration: 1 uM,0.412 °C
EML4 (UniProt Q9HC35),melting temperature shift,MBE1 concentration: 100 nM,0.372 °C
same,melting temperature shift,MBE1 concentration: 1 uM,0.25 °C
UniProt Q9H9S5,melting temperature shift,MBE1 concentration: 100 nM,0.995 °C
same,melting temperature shift,MBE1 concentration: 1 uM,-1.64 °C
PREB (UniProt Q9HCU5),melting temperature shift,MBE1 concentration: 100 nM,-0.396 °C
same,melting temperature shift,MBE1 concentration: 1 uM,0.649 °C
ABCF3 (UniProt Q9NUQ8),melting temperature shift,MBE1 concentration: 100 nM,-0.442 °C
same,melting temperature shift,MBE1 concentration: 1 uM,-0.448 °C
XPNPEP3 (UniProt Q9NQH7),melting temperature shift,MBE1 concentration: 100 nM,-0.0977 °C
same,melting temperature shift,MBE1 concentration: 1 uM,0.153 °C
ACOT13 (UniProt Q9NPJ3),melting temperature shift,MBE1 concentration: 100 nM,-1.58 °C
same,melting temperature shift,MBE1 concentration: 1 uM,-0.138 °C
PANK4 (UniProt Q9NVE7),melting temperature shift,MBE1 concentration: 100 nM,-0.484 °C
same,melting temperature shift,MBE1 concentration: 1 uM,0.397 °C
CHMP1A (UniProt Q9HD42),melting temperature shift,MBE1 concentration: 100 nM,-1.55 °C
same,melting temperature shift,MBE1 concentration: 1 uM,15.7 °C
APOBEC3C (UniProt Q9NRW3),melting temperature shift,MBE1 concentration: 100 nM,-0.104 °C
same,melting temperature shift,MBE1 concentration: 1 uM,0.483 °C
TCP11L1 (UniProt Q9NUJ3),melting temperature shift,MBE1 concentration: 100 nM,0.207 °C
same,melting temperature shift,MBE1 concentration: 1 uM,0.141 °C
ELP3 (UniProt Q9H9T3),melting temperature shift,MBE1 concentration: 100 nM,0.147 °C
same,melting temperature shift,MBE1 concentration: 1 uM,1.23 °C
NCOA5 (UniProt Q9HCD5),melting temperature shift,MBE1 concentration: 100 nM,0.269 °C
same,melting temperature shift,MBE1 concentration: 1 uM,-0.177 °C
IL1RAP (UniProt Q9NPH3),melting temperature shift,MBE1 concentration: 100 nM,-0.718 °C
same,melting temperature shift,MBE1 concentration: 1 uM,1.46 °C
BMP2K (UniProt Q9NSY1),melting temperature shift,MBE1 concentration: 100 nM,0.739 °C
same,melting temperature shift,MBE1 concentration: 1 uM,0.183 °C
AGPAT3 (UniProt Q9NRZ7),melting temperature shift,MBE1 concentration: 100 nM,-0.54 °C
same,melting temperature shift,MBE1 concentration: 1 uM,0.91 °C
COG4 (UniProt Q9H9E3),melting temperature shift,MBE1 concentration: 100 nM,-0.329 °C
same,melting temperature shift,MBE1 concentration: 1 uM,-0.325 °C
VEZT (UniProt Q9HBM0),melting temperature shift,MBE1 concentration: 100 nM,0.443 °C
same,melting temperature shift,MBE1 concentration: 1 uM,0.348 °C
RBM12 (UniProt Q9NTZ6),melting temperature shift,MBE1 concentration: 100 nM,-0.776 °C
same,melting temperature shift,MBE1 concentration: 1 uM,-0.193 °C
EIF2B3 (UniProt Q9NR50),melting temperature shift,MBE1 concentration: 100 nM,0.452 °C
same,melting temperature shift,MBE1 concentration: 1 uM,0.488 °C
UniProt Q9NRH1,melting temperature shift,MBE1 concentration: 100 nM,-1.05 °C
same,melting temperature shift,MBE1 concentration: 1 uM,-0.496 °C
RRAGC (UniProt Q9HB90),melting temperature shift,MBE1 concentration: 100 nM,-4.09 °C
same,melting temperature shift,MBE1 concentration: 1 uM,0.203 °C
UniProt Q9HCP0,melting temperature shift,MBE1 concentration: 100 nM,0.0268 °C
same,melting temperature shift,MBE1 concentration: 1 uM,-0.617 °C
UniProt Q9NUK0,melting temperature shift,MBE1 concentration: 100 nM,-11.7 °C
same,melting temperature shift,MBE1 concentration: 1 uM,-8.75 °C
KIF15 (UniProt Q9NS87),melting temperature shift,MBE1 concentration: 100 nM,-1 °C
same,melting temperature shift,MBE1 concentration: 1 uM,-0.186 °C
UniProt Q9H967,melting temperature shift,MBE1 concentration: 100 nM,-1.78 °C
same,melting temperature shift,MBE1 concentration: 1 uM,0.32 °C
UniProt Q9NQ11,melting temperature shift,MBE1 concentration: 100 nM,-1.86 °C
same,melting temperature shift,MBE1 concentration: 1 uM,1.15 °C
MCCC2 (UniProt Q9HCC0),melting temperature shift,MBE1 concentration: 100 nM,-1.77 °C
same,melting temperature shift,MBE1 concentration: 1 uM,-0.458 °C
MYO5C (UniProt Q9NQX4),melting temperature shift,MBE1 concentration: 100 nM,-0.649 °C
same,melting temperature shift,MBE1 concentration: 1 uM,-0.781 °C
NIT2 (UniProt Q9NQR4),melting temperature shift,MBE1 concentration: 100 nM,-1.05 °C
same,melting temperature shift,MBE1 concentration: 1 uM,-0.684 °C
GLRX2 (UniProt Q9NS18),melting temperature shift,MBE1 concentration: 100 nM,-2.72 °C
same,melting temperature shift,MBE1 concentration: 1 uM,1.11 °C
WDR6 (UniProt Q9NNW5),melting temperature shift,MBE1 concentration: 100 nM,0.256 °C
same,melting temperature shift,MBE1 concentration: 1 uM,0.263 °C
ENY2 (UniProt Q9NPA8),melting temperature shift,MBE1 concentration: 100 nM,-2.43 °C
same,melting temperature shift,MBE1 concentration: 1 uM,6.26 °C
ZNF277 (UniProt Q9NRM2),melting temperature shift,MBE1 concentration: 100 nM,-3.08 °C
same,melting temperature shift,MBE1 concentration: 1 uM,3.07 °C
GLOD4 (UniProt Q9HC38),melting temperature shift,MBE1 concentration: 100 nM,1.18 °C
same,melting temperature shift,MBE1 concentration: 1 uM,0.293 °C
ALG13 (UniProt Q9NP73),melting temperature shift,MBE1 concentration: 100 nM,-0.114 °C
same,melting temperature shift,MBE1 concentration: 1 uM,-0.959 °C
UniProt Q9NUX5,melting temperature shift,MBE1 concentration: 100 nM,-2.26 °C
same,melting temperature shift,MBE1 concentration: 1 uM,0.122 °C
UniProt Q9H910,melting temperature shift,MBE1 concentration: 100 nM,2.41 °C
same,melting temperature shift,MBE1 concentration: 1 uM,5.57 °C
DECR2 (UniProt Q9NUI1),melting temperature shift,MBE1 concentration: 100 nM,-0.0805 °C
same,melting temperature shift,MBE1 concentration: 1 uM,-0.805 °C
UniProt Q9NSA3,melting temperature shift,MBE1 concentration: 100 nM,2.09 °C
same,melting temperature shift,MBE1 concentration: 1 uM,-1.04 °C
UniProt Q9H9S4,melting temperature shift,MBE1 concentration: 100 nM,-1.14 °C
same,melting temperature shift,MBE1 concentration: 1 uM,-0.263 °C
TIGAR (UniProt Q9NQ88),melting temperature shift,MBE1 concentration: 100 nM,0.458 °C
same,melting temperature shift,MBE1 concentration: 1 uM,0.0611 °C
TNS1 (UniProt Q9HBL0),melting temperature shift,MBE1 concentration: 100 nM,-1.32 °C
same,melting temperature shift,MBE1 concentration: 1 uM,-2.97 °C
PNO1 (UniProt Q9NRX1),melting temperature shift,MBE1 concentration: 100 nM,-0.0706 °C
same,melting temperature shift,MBE1 concentration: 1 uM,-0.409 °C
UniProt Q9HCE3,melting temperature shift,MBE1 concentration: 100 nM,-0.669 °C
same,melting temperature shift,MBE1 concentration: 1 uM,-0.622 °C
UFSP2 (UniProt Q9NUQ7),melting temperature shift,MBE1 concentration: 100 nM,0.953 °C
same,melting temperature shift,MBE1 concentration: 1 uM,0.403 °C
WDR41 (UniProt Q9HAD4),melting temperature shift,MBE1 concentration: 100 nM,-1.06 °C
same,melting temperature shift,MBE1 concentration: 1 uM,0.389 °C
CBX8 (UniProt Q9HC52),melting temperature shift,MBE1 concentration: 100 nM,-0.0513 °C
same,melting temperature shift,MBE1 concentration: 1 uM,0.032 °C
UniProt Q9NQ66,melting temperature shift,MBE1 concentration: 100 nM,0.11 °C
same,melting temperature shift,MBE1 concentration: 1 uM,0.0366 °C
RDH14 (UniProt Q9HBH5),melting temperature shift,MBE1 concentration: 100 nM,0.427 °C
same,melting temperature shift,MBE1 concentration: 1 uM,0.287 °C
ARHGAP35 (UniProt Q9NRY4),melting temperature shift,MBE1 concentration: 100 nM,-0.802 °C
same,melting temperature shift,MBE1 concentration: 1 uM,-0.367 °C
UniProt Q9NQC1,melting temperature shift,MBE1 concentration: 100 nM,-0.444 °C
same,melting temperature shift,MBE1 concentration: 1 uM,-0.288 °C
SARS2 (UniProt Q9NP81),melting temperature shift,MBE1 concentration: 100 nM,0.476 °C
same,melting temperature shift,MBE1 concentration: 1 uM,0.0794 °C
UniProt Q9HA92,melting temperature shift,MBE1 concentration: 100 nM,0.729 °C
same,melting temperature shift,MBE1 concentration: 1 uM,1.87 °C
ARFGAP3 (UniProt Q9NP61),melting temperature shift,MBE1 concentration: 100 nM,0.0733 °C
same,melting temperature shift,MBE1 concentration: 1 uM,0.745 °C
UPF2 (UniProt Q9HAU5),melting temperature shift,MBE1 concentration: 100 nM,0.466 °C
same,melting temperature shift,MBE1 concentration: 1 uM,0.177 °C
TM7SF3 (UniProt Q9NS93),melting temperature shift,MBE1 concentration: 100 nM,-1.3 °C
same,melting temperature shift,MBE1 concentration: 1 uM,-0.559 °C
ZWILCH (UniProt Q9H900),melting temperature shift,MBE1 concentration: 100 nM,0.696 °C
same,melting temperature shift,MBE1 concentration: 1 uM,-0.739 °C
TBC1D17 (UniProt Q9HA65),melting temperature shift,MBE1 concentration: 100 nM,0.58 °C
same,melting temperature shift,MBE1 concentration: 1 uM,-0.305 °C
SRA1 (UniProt Q9HD15),melting temperature shift,MBE1 concentration: 100 nM,-0.463 °C
same,melting temperature shift,MBE1 concentration: 1 uM,-0.262 °C
GNB4 (UniProt Q9HAV0),melting temperature shift,MBE1 concentration: 100 nM,-0.934 °C
same,melting temperature shift,MBE1 concentration: 1 uM,-1.24 °C

# Another view of some results above:
target | measurement | setting | value
UniProt Q9NUX5 | melting temperature shift | MBE1 concentration: 100 nM | -2.26 °C
same | melting temperature shift | MBE1 concentration: 1 uM | 0.122 °C
UniProt Q9H910 | melting temperature shift | MBE1 concentration: 100 nM | 2.41 °C

# Some of the entries above, set out differently:
target	measurement	setting	value
JPH1 (UniProt Q9HDC5)	melting temperature shift	MBE1 concentration: 1 uM	0.14 °C
VEZT (UniProt Q9HBM0)	melting temperature shift	MBE1 concentration: 1 uM	0.348 °C
WDR6 (UniProt Q9NNW5)	melting temperature shift	MBE1 concentration: 1 uM	0.263 °C

# Exported as tab-separated lines: part of the list above
target	measurement	setting	value
ZNF277 (UniProt Q9NRM2)	melting temperature shift	MBE1 concentration: 1 uM	3.07 °C
GLOD4 (UniProt Q9HC38)	melting temperature shift	MBE1 concentration: 100 nM	1.18 °C
